These are yes or no findings as the source states them, for the method shown. Some entries that bind do so weakly or less than the wild type.
Legend:
HLH-2 (C. elegans) [1] = biological target: HLH-2 (C. elegans) (UniProt G5EEG9); assay: yeast two-hybrid (legend of FIG. 3D)
HLH-2 (C. elegans) [2] = biological target: HLH-2 (C. elegans) (UniProt G5EEG9); assay: yeast two-hybrid

Protein sequences, listed by entry. Tags and fused reporters are not part of them. Lines headed by an entry give the natural chain unless they say otherwise; changes in a name come on top.
UniProt G5EEG9: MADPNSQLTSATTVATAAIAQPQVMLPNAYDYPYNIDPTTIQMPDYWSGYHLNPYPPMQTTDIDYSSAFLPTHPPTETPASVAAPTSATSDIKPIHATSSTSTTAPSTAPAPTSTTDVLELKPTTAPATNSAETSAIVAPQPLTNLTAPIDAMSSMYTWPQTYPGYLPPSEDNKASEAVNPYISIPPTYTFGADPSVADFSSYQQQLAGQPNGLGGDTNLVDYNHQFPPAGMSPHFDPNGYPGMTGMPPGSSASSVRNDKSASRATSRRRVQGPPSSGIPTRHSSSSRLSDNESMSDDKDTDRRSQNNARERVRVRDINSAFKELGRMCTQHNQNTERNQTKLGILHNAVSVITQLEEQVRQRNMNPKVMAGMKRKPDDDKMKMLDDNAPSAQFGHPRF

binding (HLH-2 (C. elegans) [1]): binds
binding (HLH-2 (C. elegans) [2]): binds
B1: DPY-22 PQ-rich domain (protein, C. elegans, UniProt Q20497 2142-3498, looked up)
chain: QTTRLDKVAKNVQNVLRSNMHHTHVLEFNRPQLLMSDNMFDDIFLAPPDIEITKIIEQPVPVIDEEEAKKRAEEEKEAAEKKEESKNAEDEKNKNNAENKKDTKEGEKGKSKDKEKDGEKEKCKDASKKDDVTSEKNELEKRASDAAAATNAPETNKDMDTSTPKPAPVTRSPATRGRGGGRKRNSGARGGGPRAKRANSRADTAQAAAATTQWNAPIANTSNPAAGGNFHAAMRGNQPPMSNGSSDETKVHIRNLLNRKKEEKRNSLADASAAAAAANSNAMGNTSSMPPSGPPMPMGSSMQSAGATQQLQGMQKHQMGGSMSGMNQNMGGMNQSMSHQAPPPYSSTNEMNRPLMNQYGGPHFAAPNPGPLNRSSGPVSSETRQQIMEQQMREKLAAHHQLVEQQKQRDAREREAREREAREHQERMQREAYMKEQQLLERKRAIEENNRIMEEQQREREMEAARKEAARRAAEEAYAAEQQRLELLRRQEEERLRKEAEERMRIQRENEERVRQEQMRLEAEERERIRRAEEERIQKELEDKVRREKEEAARQEKERQEQEARMREAREAELSRQRMEQQRRSQQNPYMNQQGQYSQQPPPSYQQSSYPNNYQPGQQGNQPPNYQQPSHQSMQQGHQAGYQQTSNQMQMNMQQQQNRQQGGPQQSFSGPGGINQPSQPGYSGYNQQGGQGQQGQMQQQRNPFGNQQDMQQPGAAKLMHAKPNEAHAQQYQHTQNQLSLAQKEKEKQYFQAKNLQASQANAQQQQQRFGDVVAGNVAGYGRPYGQQQLGASDQMGTSQLPGASTSRMNQGSSNPQGGMQSYQQQQPVLGQPGPIQTGQSTQQQIPAQSQQQYNSGRPQMHTTPTKNDMSARAPSGAMGQIANRMGHGTNPQGYGSTGQNVPGGYQQGQQQSGQGSYPQAQQQQPNQYSGSNQQVGQQAQQQQQQPLNQNVSQSQSAAQFGRPSQDSAYQQSGYNQTGNQSYQRPDQQQQGAQQNQWSGSNQAQNQLRSQQQAQQPLQQPQQSQQFQQPAQQAKNPMAQSAQYGGFGGQQQGYDQQQQGQIAPQQAQNPQASQSYGQQQTQQNRYGMGSSGYTANSGGSSNILNQSMEESGLNQGFSGASSNASSQQGGSSQMQQSGYGMPGNQMQMQQNQKQQVQRGMPTGMGQTNMGQSGMGQSGMGQTGMSRSGLGGGIGQQGQQSQQPQQPQVSQQQNQRGMNPGAQLPPYSTGQQQHQPQQSQISQQQQQQDQYRRMQAAQMQQQPTAQGQQNRMGMPSQQQSGAAYSNQMQFQGVRQGQQGMGGMGGSGQQQPQTQPHGSNQYYQQQQDQRMQQQPQQPGQQQQHGYGMGQYPNQQPPNQY
